Data on one molecule can be found in article PMC11674933.

The chains behind the UniProt entries cited, without tags or fusion partners.
UniProt Q9P126: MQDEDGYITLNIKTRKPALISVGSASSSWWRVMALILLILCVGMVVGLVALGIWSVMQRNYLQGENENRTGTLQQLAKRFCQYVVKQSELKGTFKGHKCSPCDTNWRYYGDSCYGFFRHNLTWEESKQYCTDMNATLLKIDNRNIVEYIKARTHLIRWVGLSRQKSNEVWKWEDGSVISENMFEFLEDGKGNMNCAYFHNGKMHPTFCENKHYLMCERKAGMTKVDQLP

Results are given in words; binding and its absence hold for the method and conditions named. Some results given as binding are weak or reduced against the parent protein; the word gives no strength. Tags and fused reporters may be left off the sequences shown.

The target in the experiment is CLEC2^2E3 overexpressed on Ramos-Blue cells (human) (UniProt Q9P126). The experiment is described as follows: flow cytometry on cells; soluble CA9-His on CLEC2^2E3 overexpressing or WT Ramos-Blue cells, stained with anti-CA9 (M75); with or without soluble PDPN; only the binder purified. On the technique in general: A flow cytometer gives signals particle by particle.

B1: sPDPN^23−131-His (domain or fragment, UniProt Q86YL7 23-131)
chain: ASTGQPEDDTETTGLEGGVAMPGAEDDVVTPGTSEDRYKSGLTTLVATSVNSVTGIRIEDLPTSESTVHAQEQSPSATASNVATSHSTEKVDGDTQTTVEKDGLSTVTL
With B1, the binding result is on record as “binds”.
